Experimental data from the supplement of paper PMC10849652.
This is one part of the list.

The chains behind the UniProt entries cited, without tags or fusion partners. Where a name states a change or a piece, a line headed by the entry shows the natural chain unless it says otherwise.
UniProt O14950, whole entry, looked up: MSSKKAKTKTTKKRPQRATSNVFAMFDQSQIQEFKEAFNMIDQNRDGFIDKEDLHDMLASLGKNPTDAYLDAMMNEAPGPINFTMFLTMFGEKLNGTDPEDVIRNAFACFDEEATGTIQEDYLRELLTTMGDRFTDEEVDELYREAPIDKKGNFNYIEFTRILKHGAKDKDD
UniProt P42898: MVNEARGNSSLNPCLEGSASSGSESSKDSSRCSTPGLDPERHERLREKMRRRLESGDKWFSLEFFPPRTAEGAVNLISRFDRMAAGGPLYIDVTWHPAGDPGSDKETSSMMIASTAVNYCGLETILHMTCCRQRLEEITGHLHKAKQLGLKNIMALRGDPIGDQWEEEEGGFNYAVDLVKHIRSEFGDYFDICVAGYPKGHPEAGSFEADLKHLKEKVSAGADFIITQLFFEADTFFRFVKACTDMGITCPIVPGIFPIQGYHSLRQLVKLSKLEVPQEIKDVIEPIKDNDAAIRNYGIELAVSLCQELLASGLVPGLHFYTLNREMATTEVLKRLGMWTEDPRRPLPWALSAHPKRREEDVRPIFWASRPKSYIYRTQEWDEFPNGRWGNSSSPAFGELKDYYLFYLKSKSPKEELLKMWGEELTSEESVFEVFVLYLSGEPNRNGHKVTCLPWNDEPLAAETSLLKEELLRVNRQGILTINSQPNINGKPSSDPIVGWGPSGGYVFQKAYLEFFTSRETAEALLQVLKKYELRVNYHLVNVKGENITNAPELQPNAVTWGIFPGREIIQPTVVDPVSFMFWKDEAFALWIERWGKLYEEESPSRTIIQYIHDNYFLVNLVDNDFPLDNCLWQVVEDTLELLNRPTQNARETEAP
UniProt Q15390: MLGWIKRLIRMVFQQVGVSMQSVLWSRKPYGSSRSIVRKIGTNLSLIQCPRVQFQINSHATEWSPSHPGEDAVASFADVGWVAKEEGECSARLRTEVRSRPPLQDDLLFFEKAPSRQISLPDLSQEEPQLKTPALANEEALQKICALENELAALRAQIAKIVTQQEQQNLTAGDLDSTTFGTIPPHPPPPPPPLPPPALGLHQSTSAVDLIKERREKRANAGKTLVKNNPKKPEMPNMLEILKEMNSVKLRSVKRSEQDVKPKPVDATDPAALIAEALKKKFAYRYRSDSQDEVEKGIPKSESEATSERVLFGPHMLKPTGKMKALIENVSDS
UniProt Q7Z406, whole entry, looked up: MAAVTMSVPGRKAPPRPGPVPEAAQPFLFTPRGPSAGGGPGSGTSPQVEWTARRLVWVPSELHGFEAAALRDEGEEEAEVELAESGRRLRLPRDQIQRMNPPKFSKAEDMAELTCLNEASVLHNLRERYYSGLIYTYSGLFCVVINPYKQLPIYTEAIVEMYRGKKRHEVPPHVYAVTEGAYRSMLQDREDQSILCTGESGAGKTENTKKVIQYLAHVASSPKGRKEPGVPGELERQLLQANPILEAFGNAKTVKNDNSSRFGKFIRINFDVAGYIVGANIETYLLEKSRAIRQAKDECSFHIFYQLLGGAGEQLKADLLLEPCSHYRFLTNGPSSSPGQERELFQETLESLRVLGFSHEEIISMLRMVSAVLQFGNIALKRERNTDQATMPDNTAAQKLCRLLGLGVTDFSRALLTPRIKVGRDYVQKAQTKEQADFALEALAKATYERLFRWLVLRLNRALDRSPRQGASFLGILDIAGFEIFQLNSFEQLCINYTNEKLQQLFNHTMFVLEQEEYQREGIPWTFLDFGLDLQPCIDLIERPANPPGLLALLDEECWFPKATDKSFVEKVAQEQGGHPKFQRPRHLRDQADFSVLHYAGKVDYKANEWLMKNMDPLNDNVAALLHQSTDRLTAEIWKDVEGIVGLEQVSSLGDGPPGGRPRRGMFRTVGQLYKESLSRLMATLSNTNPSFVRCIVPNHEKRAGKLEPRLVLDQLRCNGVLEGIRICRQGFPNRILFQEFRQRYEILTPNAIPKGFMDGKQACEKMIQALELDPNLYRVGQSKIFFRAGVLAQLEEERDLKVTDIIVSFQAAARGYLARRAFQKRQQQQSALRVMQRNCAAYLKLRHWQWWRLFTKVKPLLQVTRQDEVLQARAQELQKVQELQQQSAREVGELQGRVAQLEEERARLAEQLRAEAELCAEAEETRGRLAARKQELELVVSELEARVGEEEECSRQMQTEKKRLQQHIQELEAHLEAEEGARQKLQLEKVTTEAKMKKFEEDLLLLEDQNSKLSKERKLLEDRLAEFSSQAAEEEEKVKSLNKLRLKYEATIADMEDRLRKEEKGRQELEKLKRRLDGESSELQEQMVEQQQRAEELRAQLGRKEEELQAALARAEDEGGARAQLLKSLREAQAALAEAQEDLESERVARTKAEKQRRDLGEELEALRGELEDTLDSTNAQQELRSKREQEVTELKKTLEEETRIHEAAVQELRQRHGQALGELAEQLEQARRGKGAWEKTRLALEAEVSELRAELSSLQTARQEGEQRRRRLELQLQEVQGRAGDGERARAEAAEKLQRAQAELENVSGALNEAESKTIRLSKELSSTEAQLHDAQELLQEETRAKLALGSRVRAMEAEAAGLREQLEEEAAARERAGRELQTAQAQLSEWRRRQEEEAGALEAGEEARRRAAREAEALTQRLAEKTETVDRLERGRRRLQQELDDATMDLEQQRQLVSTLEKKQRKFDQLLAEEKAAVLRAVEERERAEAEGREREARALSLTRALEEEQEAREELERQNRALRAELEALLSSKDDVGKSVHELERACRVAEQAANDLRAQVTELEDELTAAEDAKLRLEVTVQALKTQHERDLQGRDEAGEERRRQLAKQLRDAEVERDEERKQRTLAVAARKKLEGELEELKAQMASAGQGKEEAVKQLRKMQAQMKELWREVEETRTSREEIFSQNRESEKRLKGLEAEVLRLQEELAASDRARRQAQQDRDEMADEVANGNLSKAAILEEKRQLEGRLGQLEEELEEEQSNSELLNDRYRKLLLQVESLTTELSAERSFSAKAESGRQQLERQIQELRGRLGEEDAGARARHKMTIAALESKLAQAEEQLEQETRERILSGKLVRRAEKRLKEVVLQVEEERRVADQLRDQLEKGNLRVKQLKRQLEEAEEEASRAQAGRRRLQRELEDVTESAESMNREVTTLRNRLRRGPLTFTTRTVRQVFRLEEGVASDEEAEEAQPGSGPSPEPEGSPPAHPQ
UniProt Q96DR8: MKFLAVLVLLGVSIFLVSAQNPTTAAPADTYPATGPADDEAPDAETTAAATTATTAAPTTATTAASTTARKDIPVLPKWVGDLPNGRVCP
UniProt Q969V6: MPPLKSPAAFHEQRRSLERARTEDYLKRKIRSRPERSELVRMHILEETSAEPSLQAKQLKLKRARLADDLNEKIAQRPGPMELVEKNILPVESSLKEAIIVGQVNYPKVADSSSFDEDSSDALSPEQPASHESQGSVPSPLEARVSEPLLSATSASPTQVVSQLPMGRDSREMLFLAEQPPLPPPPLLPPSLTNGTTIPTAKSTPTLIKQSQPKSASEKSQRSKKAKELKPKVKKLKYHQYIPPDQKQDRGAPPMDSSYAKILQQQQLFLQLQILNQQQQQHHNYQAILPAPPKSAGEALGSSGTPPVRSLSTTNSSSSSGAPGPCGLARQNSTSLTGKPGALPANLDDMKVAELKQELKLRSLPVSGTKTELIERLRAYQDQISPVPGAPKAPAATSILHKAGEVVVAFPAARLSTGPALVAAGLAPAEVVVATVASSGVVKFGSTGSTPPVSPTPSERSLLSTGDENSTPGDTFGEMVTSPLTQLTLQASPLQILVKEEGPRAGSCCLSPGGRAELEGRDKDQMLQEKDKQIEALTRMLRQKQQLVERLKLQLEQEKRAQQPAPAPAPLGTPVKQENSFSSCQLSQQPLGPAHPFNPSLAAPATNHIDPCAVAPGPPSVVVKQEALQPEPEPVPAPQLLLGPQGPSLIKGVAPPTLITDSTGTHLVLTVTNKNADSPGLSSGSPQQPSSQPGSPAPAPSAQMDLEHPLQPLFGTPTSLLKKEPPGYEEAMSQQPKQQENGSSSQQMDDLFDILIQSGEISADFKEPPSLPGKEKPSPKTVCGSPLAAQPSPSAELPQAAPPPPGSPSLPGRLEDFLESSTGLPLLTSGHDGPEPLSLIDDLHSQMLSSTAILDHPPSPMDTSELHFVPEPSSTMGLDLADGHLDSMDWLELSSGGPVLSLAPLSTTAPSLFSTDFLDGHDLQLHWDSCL
UniProt Q86UE4: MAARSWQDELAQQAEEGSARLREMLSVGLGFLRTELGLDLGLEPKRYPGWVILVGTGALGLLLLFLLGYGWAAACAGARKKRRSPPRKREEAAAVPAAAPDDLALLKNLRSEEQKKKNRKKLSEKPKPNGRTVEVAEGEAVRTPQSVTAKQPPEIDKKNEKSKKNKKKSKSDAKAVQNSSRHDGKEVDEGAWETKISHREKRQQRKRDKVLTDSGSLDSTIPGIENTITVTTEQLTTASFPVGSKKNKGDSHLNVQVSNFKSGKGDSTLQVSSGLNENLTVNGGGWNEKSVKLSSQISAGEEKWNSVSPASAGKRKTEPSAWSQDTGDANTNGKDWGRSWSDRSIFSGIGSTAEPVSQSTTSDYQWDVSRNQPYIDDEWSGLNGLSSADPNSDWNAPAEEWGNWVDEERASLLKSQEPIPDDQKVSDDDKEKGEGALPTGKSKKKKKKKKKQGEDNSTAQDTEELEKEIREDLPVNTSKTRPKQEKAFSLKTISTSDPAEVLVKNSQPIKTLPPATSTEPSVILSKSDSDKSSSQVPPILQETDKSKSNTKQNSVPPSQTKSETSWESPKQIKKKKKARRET
UniProt Q9HD23: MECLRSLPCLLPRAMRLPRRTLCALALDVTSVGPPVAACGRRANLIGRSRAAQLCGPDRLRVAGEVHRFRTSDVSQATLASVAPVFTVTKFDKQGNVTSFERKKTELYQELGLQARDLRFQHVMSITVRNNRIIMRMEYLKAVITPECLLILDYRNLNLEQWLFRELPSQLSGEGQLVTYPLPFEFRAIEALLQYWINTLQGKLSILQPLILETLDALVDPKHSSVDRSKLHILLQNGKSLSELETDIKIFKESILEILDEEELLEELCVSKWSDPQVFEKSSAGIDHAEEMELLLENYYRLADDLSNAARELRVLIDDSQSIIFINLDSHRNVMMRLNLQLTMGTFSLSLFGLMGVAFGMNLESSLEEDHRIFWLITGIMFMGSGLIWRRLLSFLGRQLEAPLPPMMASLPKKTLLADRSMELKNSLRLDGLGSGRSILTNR
UniProt P03905, whole entry, looked up: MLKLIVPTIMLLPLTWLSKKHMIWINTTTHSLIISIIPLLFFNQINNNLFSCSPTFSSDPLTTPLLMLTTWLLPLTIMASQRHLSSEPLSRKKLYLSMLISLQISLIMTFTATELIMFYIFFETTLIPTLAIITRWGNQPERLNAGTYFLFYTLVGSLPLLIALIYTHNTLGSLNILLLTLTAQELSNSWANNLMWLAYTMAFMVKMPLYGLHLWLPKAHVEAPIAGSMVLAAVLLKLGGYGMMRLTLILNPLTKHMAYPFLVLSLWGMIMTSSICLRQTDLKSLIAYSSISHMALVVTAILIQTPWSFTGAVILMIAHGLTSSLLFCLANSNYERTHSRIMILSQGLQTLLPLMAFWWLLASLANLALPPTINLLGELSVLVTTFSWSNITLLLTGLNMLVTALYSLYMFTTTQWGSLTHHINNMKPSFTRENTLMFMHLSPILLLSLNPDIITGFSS

What was measured:
Assay in all cases: log2 fold change, soluble protein after heating vs DMSO (PISA); higher = thermal stabilisation; K562 cells, 10 uM, 30 min; active = over 0.2 and 3.5 SD of the protein, either way, in both replicates (recomputed)
bafetinib = compound: Cc1ccc(NC(=O)c2ccc(CN3CC[C@H](N(C)C)C3)c(C(F)(F)F)c2)cc1Nc1nccc(-c2cncnc2)n1 [bafetinib]
Method in brief: (§1)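 K562 cells at 2×10^6 cells/mL were treated for 30 min with 10 μM compound, and aliquots were heated for 3 min over 48°C-58°C before pooling. Extraction used PBS with 0.5% NP-40 at 4°C, and soluble protein was the supernatant after 21,000xg for 90 min, measured by TMTpro 16plex LC-MS/MS with channel sums equalised. Thermal stability values, relative to control samples and from duplicates, are log2 fold changes.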

[1] = compound: Cc1cccc(CC(=O)N2CCc3c2ccc(-c2cn(C)c4ncnc(N)c24)c3F)n1
Method in brief: as §1

nilotinib = compound: Cc1cn(-c2cc(NC(=O)c3ccc(C)c(Nc4nccc(-c5cccnc5)n4)c3)cc(C(F)(F)F)c2)cn1 [nilotinib]
Method in brief: as §1

[2] = compound: Cc1nc(Nc2n[nH]c3c2CN(C(=O)N[C@H](CN(C)C)c2ccccc2)C3(C)C)c2sccc2n1
Method in brief: as §1

dasatinib = compound: Cc1nc(Nc2ncc(C(=O)Nc3c(C)cccc3Cl)s2)cc(N2CCN(CCO)CC2)n1 [dasatinib]
Method in brief: as §1

[3] = compound: Cc1ncc(-c2ccnc(Nc3ccc(S(C)(=O)=O)cc3)n2)n1C(C)C
Method in brief: as §1

[4] = compound: Cn1cc(-c2ccc3c(c2)CCN3C(=O)Cc2cccc(C(F)(F)F)c2)c2c(N)ncnc21
Method in brief: as §1

[5] = compound: Cn1cc(-c2ccc3nnc(C(F)(F)c4ccc5ncccc5c4)n3n2)cn1
Method in brief: as §1

tipifarnib = compound: Cn1cncc1[C@@](N)(c1ccc(Cl)cc1)c1ccc2c(c1)c(-c1cccc(Cl)c1)cc(=O)n2C [tipifarnib]
Method in brief: as §1

mubritinib = compound: FC(F)(F)c1ccc(/C=C/c2nc(COc3ccc(CCCCn4ccnn4)cc3)co2)cc1 [mubritinib]
Method in brief: as §1

[6] = compound: NC(=O)Nc1cc(-c2cccc(F)c2)sc1C(=O)N[C@H]1CCCNC1
Method in brief: as §1

[7] = compound: NC(=O)c1cnc(N[C@@H]2CCCC[C@@H]2N)nc1Nc1cccc(-n2nccn2)c1
Method in brief: as §1

[8] = compound: NC1(c2ccc(-c3nc4ccn5c(=O)[nH]nc5c4cc3-c3ccccc3)cc2)CCC1
Method in brief: as §1

[9] = compound: NCC(=O)Nc1ccc(-n2nc(C(F)(F)F)cc2-c2ccc3c(ccc4ccccc43)c2)cc1
Method in brief: as §1

entinostat = compound: Nc1ccccc1NC(=O)c1ccc(CNC(=O)OCc2cccnc2)cc1 [entinostat]
Method in brief: as §1

vorinostat = compound: O=C(CCCCCCC(=O)Nc1ccccc1)NO [vorinostat]
Method in brief: as §1

citarinostat = compound: O=C(CCCCCCNC(=O)c1cnc(N(c2ccccc2)c2ccccc2Cl)nc1)NO [citarinostat]
Method in brief: as §1

silmitasertib = compound: O=C(O)c1ccc2c(c1)nc(Nc1cccc(Cl)c1)c1ccncc12 [silmitasertib]
Method in brief: as §1

[10] = compound: O=C1NC(=O)C(c2cnc3ccccn23)=C1c1cn2c3c(cc(F)cc13)CN(C(=O)N1CCCCC1)CC2
Method in brief: as §1

[11] = compound: c1cc(OCCN2CCCCC2)cc(-c2n[nH]c3ccc(-c4nnc[nH]4)cc23)c1
Method in brief: as §1

Measured: log2 fold change

MYL12B (UniProt O14950)
inactive: bafetinib -0.049 | [1] 0.042 | nilotinib 0.031 | [2] 0.001 | dasatinib 0.001 | [3] -0.002 | [4] 0.117 | [5] -0.046 | tipifarnib -0.038 | mubritinib 0.064 | [6] 0.09 | [7] 0.084 | [8] -0.013 | [9] 0.055 | entinostat 0.029 | vorinostat -0.004 | citarinostat 0.045 | silmitasertib -0.037 | [10] -0.042 | [11] 0.026

MRPS31 (UniProt Q92665)
inactive: bafetinib 0.066 | [1] 0.042 | nilotinib -0.041 | [2] 0.093 | dasatinib -0.012 | [3] 0.065 | [4] 0.078 | [5] 0.027 | tipifarnib -0.002 | mubritinib 0.138 | [6] -0.001 | [7] 0.03 | [8] -0.05 | [9] 0 | entinostat -0.011 | vorinostat -0.039 | citarinostat 0.008 | silmitasertib -0.012 | [10] -0.036 | [11] -0.083

MTHFR isoform 2 (UniProt P42898)
inactive: bafetinib 0.039 | [1] 0.008 | nilotinib -0.026 | [2] 0.135 | dasatinib -0.04 | [3] -0.005 | [4] 0.069 | [5] 0.007 | tipifarnib -0.035 | mubritinib 0.085 | [6] -0.04 | [7] -0.092 | [8] -0.046 | [9] -0.063 | entinostat -0.009 | vorinostat -0.054 | citarinostat -0.045 | silmitasertib -0.007 | [10] -0.038 | [11] 0.128

MTFR1 (UniProt Q15390)
inactive: bafetinib -0.127 | [1] 0.061 | nilotinib -0.004 | [2] 0 | dasatinib -0.157 | [3] 0.081 | [4] 0.133 | [5] 0.017 | tipifarnib -0.069 | mubritinib -0.003 | [6] -0.027 | [7] -0.033 | [8] -0.116 | [9] -0.039 | entinostat 0.016 | vorinostat 0.131 | citarinostat 0.065 | silmitasertib 0.061 | [10] -0.005 | [11] 0.024

MRPS24 (UniProt Q96EL2)
inactive: bafetinib 0.283 | [1] 0.183 | nilotinib -0.195 | [2] 0.057 | dasatinib -0.024 | [3] 0.028 | [4] -0.141 | [5] 0.008 | tipifarnib -0.035 | mubritinib 0.186 | [6] -0.015 | [7] -0.016 | [8] -0.021 | [9] -0.086 | entinostat 0.001 | vorinostat 0.04 | citarinostat -0.053 | silmitasertib -0.096 | [10] -0.074 | [11] -0.105

MRPS6 (UniProt P82932)
inactive: bafetinib 0.062 | [1] 0.159 | nilotinib -0.146 | [2] 0.062 | dasatinib -0.02 | [3] -0.009 | [4] 0.007 | [5] 0.148 | tipifarnib -0.106 | mubritinib 0.112 | [6] 0.023 | [7] 0.009 | [8] -0.133 | [9] 0.003 | entinostat 0.03 | vorinostat 0.108 | citarinostat 0.079 | silmitasertib -0.036 | [10] -0.042 | [11] -0.031

MRPS35 (UniProt P82673)
inactive: bafetinib 0.038 | [1] 0.115 | nilotinib -0.134 | [2] 0.088 | dasatinib -0.004 | [3] -0.071 | [4] -0.039 | [5] 0.017 | tipifarnib 0.024 | mubritinib 0.091 | [6] 0.035 | [7] -0.07 | [8] -0.082 | [9] 0.012 | entinostat -0.027 | vorinostat 0.088 | citarinostat -0.011 | silmitasertib -0.119 | [10] -0.033 | [11] -0.03

MYCBP2 (UniProt O75592)
inactive: bafetinib -0.388 | [1] -0.359 | nilotinib -0.037 | [2] 0.047 | dasatinib -0.311 | [3] 0.282 | [4] 0.109 | [5] -0.093 | tipifarnib -0.106 | mubritinib -0.176 | [6] -0.31 | [7] 0.023 | [8] 0.194 | [9] -0.227 | entinostat -0.147 | vorinostat -0.069 | citarinostat -0.058 | silmitasertib 0.17 | [10] 0.124 | [11] 0.069

MRPS18A isoform 2 (UniProt Q9NVS2)
inactive: bafetinib 0.145 | [1] 0.078 | nilotinib -0.058 | [2] 0.084 | dasatinib 0.029 | [3] 0.028 | [4] -0.197 | [5] -0.097 | tipifarnib 0.104 | mubritinib 0.029 | [6] -0.004 | [7] 0.031 | [8] 0.071 | [9] 0.074 | entinostat 0.013 | vorinostat -0.026 | citarinostat -0.028 | silmitasertib 0.01 | [10] 0.03 | [11] -0.083

MYH14 isoform 2 (UniProt Q7Z406)
inactive: bafetinib -0.059 | [1] 0.03 | nilotinib -0.019 | [2] 0.036 | dasatinib -0.007 | [3] -0.008 | [4] -0.003 | [5] 0.021 | tipifarnib -0.053 | mubritinib 0.066 | [6] -0.052 | [7] 0.057 | [8] -0.071 | [9] -0.012 | entinostat 0.009 | vorinostat 0.022 | citarinostat 0.01 | silmitasertib 0.046 | [10] -0.072 | [11] 0.004

MUCL1 (UniProt Q96DR8)
inactive: bafetinib -0.085 | [1] -0.463 | nilotinib -0.197 | [2] 0.154 | dasatinib 0.167 | [3] 0.889 | [4] 0.347 | [5] 0.361 | tipifarnib -0.186 | mubritinib 0.387 | [6] 0.305 | [7] 0.388 | [8] -0.107 | [9] 0.245 | entinostat 0.175 | vorinostat 0.661 | citarinostat -0.205 | silmitasertib -0.526 | [10] 0.074 | [11] 0.29

MRPS10 (UniProt P82664)
inactive: bafetinib 0.057 | [1] 0.119 | nilotinib -0.097 | [2] 0.006 | dasatinib -0.005 | [3] -0.046 | [4] 0.002 | [5] -0.096 | tipifarnib -0.104 | mubritinib 0.1 | [6] -0.014 | [7] 0.004 | [8] -0.052 | [9] 0.011 | entinostat -0.033 | vorinostat 0.057 | citarinostat 0.07 | silmitasertib -0.048 | [10] 0 | [11] -0.08

MRTFA (UniProt Q969V6)
inactive: bafetinib 0.003 | [1] -0.078 | nilotinib -0.029 | [2] -0.065 | dasatinib -0.071 | [3] -0.086 | [4] -0.113 | [5] -0.006 | tipifarnib -0.116 | mubritinib -0.05 | [6] -0.151 | [7] -0.197 | [8] -0.027 | [9] 0.105 | entinostat -0.025 | vorinostat 0.056 | citarinostat 0.116 | silmitasertib 0.007 | [10] -0.034 | [11] 0.015

MTDH (UniProt Q86UE4)
inactive: bafetinib 0.182 | [1] -0.028 | nilotinib 0.016 | [2] 0.138 | dasatinib 0.218 | [3] -0.03 | [4] -0.259 | [5] -0.22 | tipifarnib 0.161 | mubritinib -0.134 | [6] 0.134 | [7] 0.08 | [8] 0.364 | [9] 0.207 | entinostat -0.079 | vorinostat 0 | citarinostat -0.084 | silmitasertib 0.162 | [10] 0.228 | [11] -0.167

Retrieved one by one from above, 2 records:
MYL12B (UniProt O14950)
inactive: bafetinib -0.049 | [1] 0.042 | nilotinib 0.031 | [2] 0.001 | dasatinib 0.001 | [3] -0.002 | [4] 0.117 | [5] -0.046 | tipifarnib -0.038 | mubritinib 0.064 | [6] 0.09 | [7] 0.084 | [8] -0.013 | [9] 0.055 | entinostat 0.029 | vorinostat -0.004 | citarinostat 0.045 | silmitasertib -0.037 | [10] -0.042 | [11] 0.026

MTFR1 (UniProt Q15390)
inactive: bafetinib -0.127 | [1] 0.061 | nilotinib -0.004 | [2] 0 | dasatinib -0.157 | [3] 0.081 | [4] 0.133 | [5] 0.017 | tipifarnib -0.069 | mubritinib -0.003 | [6] -0.027 | [7] -0.033 | [8] -0.116 | [9] -0.039 | entinostat 0.016 | vorinostat 0.131 | citarinostat 0.065 | silmitasertib 0.061 | [10] -0.005 | [11] 0.024

Further records

MRS2 (UniProt Q9HD23)
inactive: bafetinib -0.03 | [1] -0.054 | nilotinib -0.02 | [2] 0.021 | dasatinib 0.003 | [3] -0.019 | [4] -0.025 | [5] -0.044 | tipifarnib 0.002 | mubritinib 0.002 | [6] -0.029 | [7] -0.01 | [8] -0.039 | [9] -0.031 | entinostat -0.032 | vorinostat -0.021 | citarinostat 0.031 | silmitasertib 0 | [10] -0.009 | [11] -0.021

MT-ND4 (UniProt P03905)
inactive: bafetinib -0.016 | [1] -0.118 | nilotinib 0.006 | [2] -0.033 | dasatinib -0.009 | [3] -0.003 | [4] -0.004 | [5] -0.045 | tipifarnib 0.173 | mubritinib 0.05 | [6] 0.052 | [7] 0.038 | [8] -0.046 | [9] -0.074 | entinostat 0.099 | vorinostat 0.261 | citarinostat 0.198 | silmitasertib -0.011 | [10] 0.088 | [11] -0.057
